Laboratory results: the supplement of paper PMC12819154, “High-throughput peptide-centric local stability assay extends protein–ligand identification to membrane proteins, tissues and bacteria” (Nature Structural & Molecular Biology, 2025)
The other results are listed elsewhere or left out. Most entries show no effect beyond the scatter of the controls.

Protein sequences, listed by entry. Tags and fused reporters are not part of them. Lines headed by an entry give the natural chain unless they say otherwise; changes in a name come on top.
UniProt Q9BST9: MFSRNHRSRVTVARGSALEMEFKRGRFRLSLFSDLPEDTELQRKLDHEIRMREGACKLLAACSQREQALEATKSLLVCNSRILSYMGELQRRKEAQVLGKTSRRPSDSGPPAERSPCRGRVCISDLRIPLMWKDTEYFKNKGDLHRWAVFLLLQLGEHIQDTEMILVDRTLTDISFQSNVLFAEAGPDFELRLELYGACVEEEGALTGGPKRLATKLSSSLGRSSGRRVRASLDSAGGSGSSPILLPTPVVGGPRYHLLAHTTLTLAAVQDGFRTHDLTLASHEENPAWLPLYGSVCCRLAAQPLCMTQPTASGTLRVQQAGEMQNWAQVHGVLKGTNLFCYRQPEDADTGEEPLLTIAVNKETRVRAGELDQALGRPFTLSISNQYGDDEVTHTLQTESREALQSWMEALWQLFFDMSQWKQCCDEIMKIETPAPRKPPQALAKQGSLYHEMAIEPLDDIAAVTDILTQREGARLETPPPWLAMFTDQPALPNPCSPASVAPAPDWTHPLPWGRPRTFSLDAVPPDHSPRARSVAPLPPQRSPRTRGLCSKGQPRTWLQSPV
UniProt Q99661: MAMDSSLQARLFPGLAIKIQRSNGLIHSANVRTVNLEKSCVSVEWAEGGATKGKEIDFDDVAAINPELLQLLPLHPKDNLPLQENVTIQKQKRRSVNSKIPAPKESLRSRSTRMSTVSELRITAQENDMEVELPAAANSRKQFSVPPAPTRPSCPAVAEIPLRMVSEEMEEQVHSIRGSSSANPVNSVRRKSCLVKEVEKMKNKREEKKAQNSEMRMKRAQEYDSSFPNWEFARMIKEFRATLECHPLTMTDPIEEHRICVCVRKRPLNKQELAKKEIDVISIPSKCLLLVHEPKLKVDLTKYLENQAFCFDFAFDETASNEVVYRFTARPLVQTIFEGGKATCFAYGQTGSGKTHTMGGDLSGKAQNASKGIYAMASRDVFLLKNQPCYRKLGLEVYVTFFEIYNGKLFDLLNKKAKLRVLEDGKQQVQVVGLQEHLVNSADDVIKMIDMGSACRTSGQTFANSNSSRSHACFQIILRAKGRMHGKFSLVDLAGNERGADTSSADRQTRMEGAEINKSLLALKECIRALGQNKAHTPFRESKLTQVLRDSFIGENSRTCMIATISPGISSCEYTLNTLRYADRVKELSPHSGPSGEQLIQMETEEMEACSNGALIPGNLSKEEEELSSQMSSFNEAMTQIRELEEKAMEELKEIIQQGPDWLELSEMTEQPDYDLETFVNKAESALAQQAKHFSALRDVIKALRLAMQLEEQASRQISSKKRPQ
UniProt Q9BUB4: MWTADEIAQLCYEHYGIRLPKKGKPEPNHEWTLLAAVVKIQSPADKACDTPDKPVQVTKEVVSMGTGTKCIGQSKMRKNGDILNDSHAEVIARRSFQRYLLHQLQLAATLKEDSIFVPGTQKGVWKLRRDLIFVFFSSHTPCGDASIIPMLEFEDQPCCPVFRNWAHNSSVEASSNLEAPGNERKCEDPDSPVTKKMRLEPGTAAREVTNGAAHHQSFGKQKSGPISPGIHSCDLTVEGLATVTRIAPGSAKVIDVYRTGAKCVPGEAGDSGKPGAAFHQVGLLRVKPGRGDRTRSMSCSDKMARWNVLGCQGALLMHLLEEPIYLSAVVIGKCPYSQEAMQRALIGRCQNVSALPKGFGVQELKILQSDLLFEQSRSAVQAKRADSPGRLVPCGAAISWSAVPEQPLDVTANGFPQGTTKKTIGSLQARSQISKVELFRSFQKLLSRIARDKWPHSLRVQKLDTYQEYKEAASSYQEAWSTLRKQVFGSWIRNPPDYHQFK
UniProt Q9BPX7: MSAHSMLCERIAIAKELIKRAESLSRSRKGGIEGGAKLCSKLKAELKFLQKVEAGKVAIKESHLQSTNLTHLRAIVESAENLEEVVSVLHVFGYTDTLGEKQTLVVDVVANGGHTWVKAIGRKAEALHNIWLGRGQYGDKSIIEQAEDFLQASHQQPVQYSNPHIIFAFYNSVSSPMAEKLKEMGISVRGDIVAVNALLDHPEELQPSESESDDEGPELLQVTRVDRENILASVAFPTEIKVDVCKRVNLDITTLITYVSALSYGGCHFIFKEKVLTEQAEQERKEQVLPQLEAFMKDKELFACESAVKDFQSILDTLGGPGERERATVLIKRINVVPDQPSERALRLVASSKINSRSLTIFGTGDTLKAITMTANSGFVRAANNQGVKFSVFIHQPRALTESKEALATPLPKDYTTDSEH
UniProt Q9BTD8: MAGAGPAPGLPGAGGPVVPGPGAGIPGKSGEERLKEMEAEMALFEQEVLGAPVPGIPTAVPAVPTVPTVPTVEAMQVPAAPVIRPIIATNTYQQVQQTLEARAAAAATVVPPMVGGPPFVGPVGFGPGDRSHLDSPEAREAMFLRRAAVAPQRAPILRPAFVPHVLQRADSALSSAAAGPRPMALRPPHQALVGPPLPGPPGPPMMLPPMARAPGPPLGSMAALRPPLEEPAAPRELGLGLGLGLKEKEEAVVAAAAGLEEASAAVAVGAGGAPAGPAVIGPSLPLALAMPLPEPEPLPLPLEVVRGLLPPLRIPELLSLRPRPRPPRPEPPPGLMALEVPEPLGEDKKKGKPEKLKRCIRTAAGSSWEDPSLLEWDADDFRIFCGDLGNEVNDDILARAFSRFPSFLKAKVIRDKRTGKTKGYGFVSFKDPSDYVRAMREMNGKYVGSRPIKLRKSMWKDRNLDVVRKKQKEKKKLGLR
UniProt Q9BTV6: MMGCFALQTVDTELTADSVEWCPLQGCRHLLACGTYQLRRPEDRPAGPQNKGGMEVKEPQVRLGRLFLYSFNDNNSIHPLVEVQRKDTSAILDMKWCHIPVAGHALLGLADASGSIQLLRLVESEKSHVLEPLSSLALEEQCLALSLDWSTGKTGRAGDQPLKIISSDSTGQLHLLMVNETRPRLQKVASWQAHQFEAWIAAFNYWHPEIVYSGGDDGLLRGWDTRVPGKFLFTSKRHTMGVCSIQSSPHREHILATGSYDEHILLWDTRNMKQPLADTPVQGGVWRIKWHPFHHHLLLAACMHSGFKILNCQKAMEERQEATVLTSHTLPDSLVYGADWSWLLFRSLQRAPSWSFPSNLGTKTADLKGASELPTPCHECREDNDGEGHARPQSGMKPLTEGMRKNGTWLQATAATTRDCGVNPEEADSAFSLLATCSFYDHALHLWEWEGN

Each target was assayed with Cc1nc(Nc2ncc(C(=O)Nc3c(C)cccc3Cl)s2)cc(N2CCN(CCO)CC2)n1 [dasatinib] (assay: log2 fold change of tryptic peptide abundance, ligand vs vehicle (limited proteolysis) (log2 ratio); higher = more trypsin-susceptible (destabilized)). Conditions: ligand concentration: 5 uM; sample: K562 cleared lysate.

Question: With “NEU1 (peptide sequence: DGVFCLLSDDHGASWR, peptide start residue: 226) (UniProt Q99519)” as the target, how does the log2 fold change read?
Answer: The log2 fold change was 0.21.

Question: “RTKN (peptide sequence: SLLVCNSR, peptide start residue: 74) (UniProt Q9BST9)” was tested. Which log2 fold change did it give?
Answer: The log2 fold change was -0.166.

Question: For “KIF2C (peptide sequence: LFDLLNKK, peptide start residue: 409) (UniProt Q99661)”, which log2 fold change is on record?
Answer: Its log2 fold change is -0.185.

Question: With “ADAT1 (peptide sequence: NPPDYHQFK, peptide start residue: 494) (UniProt Q9BUB4)” as the target, how does the log2 fold change read?
Answer: The log2 fold change was -0.269.

Question: With “C7orf25 (peptide sequence: SAHSMLCER, peptide start residue: 2) (UniProt Q9BPX7)” as the target, how does the log2 fold change read?
Answer: Its log2 fold change is 0.106.

Question: Which log2 fold change does the source give for “RBM42 (peptide sequence: YVGSRPIK, peptide start residue: 446) (UniProt Q9BTD8)” here?
Answer: The log2 fold change was -0.244.

Question: Which log2 fold change does the source give for “UniProt Q9BTV6 (peptide sequence: EDNDGEGHARPQSGMK, peptide start residue: 382)” here?
Answer: Its log2 fold change is 0.481.
